This data set has as its target T1, CTCF Y226C (UniProt P49711).
T1 sequence (looked up): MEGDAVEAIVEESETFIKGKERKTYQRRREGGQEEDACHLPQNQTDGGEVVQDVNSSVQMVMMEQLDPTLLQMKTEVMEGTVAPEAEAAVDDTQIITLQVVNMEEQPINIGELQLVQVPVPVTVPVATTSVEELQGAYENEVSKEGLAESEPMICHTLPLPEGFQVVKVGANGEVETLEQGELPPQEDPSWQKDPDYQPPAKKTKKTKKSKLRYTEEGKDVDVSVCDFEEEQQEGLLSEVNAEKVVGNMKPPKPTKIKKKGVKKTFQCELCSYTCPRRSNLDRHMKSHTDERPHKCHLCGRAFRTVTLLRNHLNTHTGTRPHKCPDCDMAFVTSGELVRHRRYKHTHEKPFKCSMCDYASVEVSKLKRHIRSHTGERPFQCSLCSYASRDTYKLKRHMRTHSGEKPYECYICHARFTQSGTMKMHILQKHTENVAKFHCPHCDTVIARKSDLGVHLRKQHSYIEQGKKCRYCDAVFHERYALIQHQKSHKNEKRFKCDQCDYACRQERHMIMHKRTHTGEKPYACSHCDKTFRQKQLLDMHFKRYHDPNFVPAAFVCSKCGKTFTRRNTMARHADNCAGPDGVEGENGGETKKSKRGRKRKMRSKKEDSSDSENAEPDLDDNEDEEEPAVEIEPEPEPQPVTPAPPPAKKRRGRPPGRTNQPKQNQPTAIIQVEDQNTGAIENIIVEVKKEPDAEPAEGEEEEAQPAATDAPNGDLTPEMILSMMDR
The data set can be described thus: pull-down. To be noted: densitometry only in figure; TnT lysate protein with bead-bound DNA, 3 h at 4 C; beads washed before and after binding in PIB; protein translated in vitro; residues 1-727; protein details: FLAG (pcDNA3.1-FLAG); label: 5' biotin on S3 strand.

Construct, isoform or probe ends are uncertain for at least one entry. At least one verdict was read from the data and is not stated in words by the source. Where a protein sequence is shown, tags need not be part of it.

As for “AGGACCAGCAGGGGGCGCA (double strand) [core CTCF binding site probe]”, the binding result is “binds”.

(Values after article PMC8629902, “Structure–function relationships explain CTCF zinc finger mutation phenotypes in cancer”.)
